# Measurements: PubChem BioAssay AID1671190 (National Center for Advancing Translational Sciences (NCATS), 2021)
# Protein sequences, listed by entry. Tags and fused reporters are not part of them.
# UniProt P18054, whole entry, looked up: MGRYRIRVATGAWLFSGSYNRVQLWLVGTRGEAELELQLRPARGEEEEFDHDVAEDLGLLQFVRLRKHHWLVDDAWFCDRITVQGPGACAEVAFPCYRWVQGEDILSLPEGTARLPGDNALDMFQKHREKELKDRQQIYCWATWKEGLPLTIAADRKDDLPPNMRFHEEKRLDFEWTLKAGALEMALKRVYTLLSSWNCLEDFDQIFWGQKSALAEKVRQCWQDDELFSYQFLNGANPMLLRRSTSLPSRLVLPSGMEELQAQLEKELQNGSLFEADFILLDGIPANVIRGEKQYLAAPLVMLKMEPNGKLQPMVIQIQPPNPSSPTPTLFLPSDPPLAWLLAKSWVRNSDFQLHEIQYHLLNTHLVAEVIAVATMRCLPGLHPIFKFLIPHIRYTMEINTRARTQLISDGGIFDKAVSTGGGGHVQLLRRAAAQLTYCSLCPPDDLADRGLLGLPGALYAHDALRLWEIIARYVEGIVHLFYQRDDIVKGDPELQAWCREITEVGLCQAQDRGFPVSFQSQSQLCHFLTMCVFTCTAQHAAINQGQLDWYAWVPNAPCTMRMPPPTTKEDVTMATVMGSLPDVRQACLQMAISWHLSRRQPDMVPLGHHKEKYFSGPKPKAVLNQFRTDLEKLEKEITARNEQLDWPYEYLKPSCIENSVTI
# Hit rate of the full screen: of about 580,000 compounds, about 6,100 (1.1%) were called active. The inconclusive results got no clear call from the source; some entries with a clear call stand among them for comparison. Calls come from the whole dose curve; as a rule, active = well fitted inhibition curve with a large enough effect; inconclusive = small, poorly fitted or top-dose-only effect, or another doubt; inactive = no such curve, though single readings can be large or run the other way. Where the call is inconclusive, the potency comes from a doubtful curve fit.
# Target: Polyunsaturated fatty acid lipoxygenase ALOX12 (Homo sapiens) (UniProt P18054)
# Assay: Primary qHTS assay for inhibitors of human arachidonate 12S-lipoxygenase (ALOX12): Round 2
# Details: purified 12hLO, xylenol orange hydroperoxide absorbance; series mostly up to 108 µM
# In short: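 Purified human 12hLO at 150 nM in 25 mM Hepes, 0.01% Triton X-100, pH 7.0, preincubated 15 min at room temperature with compound. Reaction started with 40 uM arachidonic acid, 30 min at room temperature. Hydroperoxide measured by Fe-xylenol orange, 573/405 nm absorbance ratio.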
# Potency is the fitted concentration of half-maximal effect.
row,SMILES,Potency
1,CCCCCCn1nc(C(=O)Nc2ccc(NC(C)=O)cc2)c2ccccc2c1=O,"inconclusive: 50.1 µM [inhibitor, partial curve, poor fit]"
2,S=C(NCCc1ccccc1)N1CCC2CC1c1c(Cl)cccc12 (centres undefined),"inconclusive: 44.7 µM [inhibitor, partial curve, poor fit]"
3,COc1cccc2cc(CNCc3c(C)noc3C)oc12,inactive
4,O=C1c2ccccc2NC(c2ccco2)N1O (centres undefined),"inconclusive: 14.1 µM [inhibitor, full curve, poor fit]"
5,CCc1ccccc1NC(=O)Cn1cccc1-c1nc(-c2ccc(OC)c(F)c2)no1,inactive
6,N#Cc1ccc(/C=C/C(=O)c2cccc(N3CCOCC3)c2)cc1,"inconclusive: 56.2 µM [inhibitor, partial curve, poor fit]"
7,O=C(Cc1ccccc1)NNC(=S)NC(=O)c1cccnc1,"inconclusive: 50.1 µM [inhibitor, partial curve, poor fit]"
8,O=C(CCSc1ccccc1)N1CCCC1,inactive
9,O=C(c1csc(Cc2ccccc2)n1)N1CCC2(CCNCC2)CC1,inactive
10,CCOC(=O)c1c(N)sc2c1CCC(CC)C2 (centres undefined),inactive
11,COc1cccc(-n2sc3c(c2=S)-c2cc(OC)ccc2NC3(C)C)c1,"inconclusive: 35.5 µM [inhibitor, single point]"
12,CCN(CC)CCCNc1ncnc2ccccc12,"inconclusive: 25.1 µM [inhibitor, single point]"
13,COc1ccc(N=C2SC(C(N)=O)CC(=O)N2CCc2ccc(OC)c(OC)c2)cc1 (centres undefined),"inconclusive: 89.1 µM [inhibitor, single point]"
14,CC1CCCCN1CCNC(=O)c1nn(C)c2c1COc1ccccc1-2 (centres undefined),inactive
15,O=C(NC1CCCCC1)C(c1ccc(O)c(O)c1)N(C(=O)Cn1nnc2ccccc21)c1cccc(O)c1 (centres undefined),"inconclusive: 44.7 µM [inhibitor, partial curve]"
16,Cc1ccc(SCC(=O)Nc2ccc(N3CCOCC3)cc2)cc1,"inconclusive: 50.1 µM [inhibitor, partial curve, poor fit]"
17,COC(=O)c1sccc1NC(=O)c1ccc(C)cc1,inactive
18,O=S(=O)(c1cccs1)N(Cc1ccco1)Cc1cccs1,"inconclusive: 31.6 µM [inhibitor, partial curve, poor fit]"
19,O=[N+]([O-])c1ccccc1C=NN1CCCCCC1,"inconclusive: 44.7 µM [inhibitor, partial curve, poor fit]"
20,CC(=O)N1CCC(=NNc2nc3ccccc3s2)CC1,"inconclusive: 20 µM [inhibitor, partial curve]"
21,C=CCOc1ccc(C(N)=O)cc1,inactive
22,Cc1cc(C)cc(NC(=O)CSc2nc3c([nH]c4ccccc43)c(=O)n2-c2ccc(F)cc2)c1,"inconclusive: 126 µM [inhibitor, partial curve, poor fit]"

row,SMILES,Potency
1,FC(F)(F)c1cccc(-c2cc3ccccc3nc2N2CCCC2)c1,"inconclusive: 35.5 µM [inhibitor, single point]"
2,Cn1c(=O)c(=O)n(C)c2cc(N3CCCCC3)c(NS(=O)(=O)c3ccc(Br)cc3)cc21,"inconclusive: 56.2 µM [inhibitor, partial curve, poor fit]"
3,CC1(C(=O)NS(=O)(=O)c2ccc(F)cc2F)CCN1C(=O)C1(c2ccc(Cl)cc2)CC1 (centres undefined),"inconclusive: 89.1 µM [inhibitor, single point]"
4,O=C(NC1CC1)C1CCCN1S(=O)(=O)c1ccc(Br)s1 (centres undefined),"inconclusive: 100 µM [inhibitor, single point]"
5,CCNC(=O)Nc1ccc2c(c1)c(=O)n(C)n2Cc1ccc(Cl)cc1,active: 14.1 µM
6,CCc1cc2c(=O)n(CC(=O)NC3CCCCC3)cnc2s1,"inconclusive: 50.1 µM [inhibitor, partial curve, poor fit]"
7,CCOC(=O)c1c(CC(C)C)csc1/N=C/C1=C(O)CCCC1=O,"inconclusive: 17.8 µM [inhibitor, partial curve, poor fit]"
8,N#Cc1nc(-c2ccccc2F)oc1NCc1ccc(Cl)cc1,"inconclusive: 35.5 µM [inhibitor, partial curve, poor fit]"
9,CCOC(=O)Cc1csc(NC(=O)c2ccc(C)o2)n1,inactive
10,Cn1nccc1C(=O)N1CCC(N2C(=O)C(OCC3CC3)C23CCOCC3)CC1 (centres undefined),inactive
11,CC(=O)c1cc(C)cc(C(C)=O)c1O,inactive
12,CCOc1ccc(-c2cc(NC(=O)c3cccc(Cl)c3)c(C(=O)OC)s2)cc1,"inconclusive: 5.62 µM [inhibitor, full curve, poor fit]"
13,Cc1cc(C)cc(NS(=O)(=O)c2ccc(NC(=S)NC(=O)c3ccc(Br)o3)cc2)c1,"inconclusive: 35.5 µM [inhibitor, partial curve]"
14,Cc1cc(-c2nnc(SCC(=O)Nc3nc(-c4ccc(Cl)cc4)cs3)o2)no1,"inconclusive: 70.8 µM [inhibitor, partial curve, poor fit]"
15,COc1ccccc1OCC(=O)N(Cc1nc(-c2ccccc2)no1)C1CCCCC1,"inconclusive: 10 µM [inhibitor, full curve, poor fit]"
16,O=C(NC1=NCCS1)c1ccccc1Br,"inconclusive: 35.5 µM [inhibitor, single point]"
17,CCN(CC)c1cc(C)c2cc(NC(=O)c3cccs3)ccc2n1,inactive
18,COc1cccc(CNC(=O)CCC2CCCN(C(=O)c3cc(C)[nH]n3)C2)c1 (centres undefined),"inconclusive: 112 µM [inhibitor, single point]"
19,COc1cc(O)c(CC=C(C)C)c(O)c1C(=O)CCc1ccc(O)cc1,"inconclusive: 126 µM [inhibitor, single point]"
20,CSc1nccc(-c2c(-c3ccc(Cl)cc3)noc2C)n1,"inconclusive: 126 µM [inhibitor, single point]"
21,Cc1cc(C2=NNC(=NC3CCCCC3)SC2)c(C)n1C1CC1,"inconclusive: 56.2 µM [inhibitor, partial curve, poor fit]"
22,O=C(NCc1ccc(Cl)cc1)C1CCCN(c2cnn(Cc3ccccc3)c(=O)c2)C1 (centres undefined),inactive

# Molecules shown so far containing an NH in an aromatic ring:
row,SMILES,Potency
22,Cc1cc(C)cc(NC(=O)CSc2nc3c([nH]c4ccccc43)c(=O)n2-c2ccc(F)cc2)c1,"inconclusive: 126 µM [inhibitor, partial curve, poor fit]"
18,COc1cccc(CNC(=O)CCC2CCCN(C(=O)c3cc(C)[nH]n3)C2)c1 (centres undefined),"inconclusive: 112 µM [inhibitor, single point]"
